The assay concerns the target MICA*019 (Homo sapiens). As to the kind of experiment: Luminex bead assay (One Lambda kit), PE anti-human IgG secondary; bars assigned by their order in the legend box.

We go through one molecule from patent US20160046716A1 (Dana-Farber, published 2016).

Results are given in words; binding and its absence hold for the method and conditions named. Binding calls can cover weak binding; strength is not graded here.

B1: MICA-Ab20 (antibody, V domains shown)
VH: QVQLQQWGAGLLKPSETLALTCAVSGGSFTDHYWSWIRQAPGKGLEWIGEINHSGVTNYNPSLKSRLTISVDTSKSQFSLRLTSVTAADTALYYCAKTGLYYDDVWGTFRPRGGFDSWGQGTLVTVSS
VL: DIVMTQSPDSLAVSLGERATINCKSSQSILYSSDNKNYLAWYQHKPGQPPKLLFYWASIRESGVPDRFSGGGSGTDFTLTISSLQAEDVAVYYCQQYYSPPCSFGQGTKLEIQ
notes: also called anti-MICA antibody ID-1; antibody ID 1
Take B1: the binding result was “binds”.
